Reference: the supplement of paper PMC6411743
± gives the standard deviation of the averaged measurements. Some of the results follow.

Chains of the proteins cited; added tags and fusions are not shown. Lines headed by an entry give the natural chain unless they say otherwise; changes in a name come on top.
UniProt Q93050, whole entry: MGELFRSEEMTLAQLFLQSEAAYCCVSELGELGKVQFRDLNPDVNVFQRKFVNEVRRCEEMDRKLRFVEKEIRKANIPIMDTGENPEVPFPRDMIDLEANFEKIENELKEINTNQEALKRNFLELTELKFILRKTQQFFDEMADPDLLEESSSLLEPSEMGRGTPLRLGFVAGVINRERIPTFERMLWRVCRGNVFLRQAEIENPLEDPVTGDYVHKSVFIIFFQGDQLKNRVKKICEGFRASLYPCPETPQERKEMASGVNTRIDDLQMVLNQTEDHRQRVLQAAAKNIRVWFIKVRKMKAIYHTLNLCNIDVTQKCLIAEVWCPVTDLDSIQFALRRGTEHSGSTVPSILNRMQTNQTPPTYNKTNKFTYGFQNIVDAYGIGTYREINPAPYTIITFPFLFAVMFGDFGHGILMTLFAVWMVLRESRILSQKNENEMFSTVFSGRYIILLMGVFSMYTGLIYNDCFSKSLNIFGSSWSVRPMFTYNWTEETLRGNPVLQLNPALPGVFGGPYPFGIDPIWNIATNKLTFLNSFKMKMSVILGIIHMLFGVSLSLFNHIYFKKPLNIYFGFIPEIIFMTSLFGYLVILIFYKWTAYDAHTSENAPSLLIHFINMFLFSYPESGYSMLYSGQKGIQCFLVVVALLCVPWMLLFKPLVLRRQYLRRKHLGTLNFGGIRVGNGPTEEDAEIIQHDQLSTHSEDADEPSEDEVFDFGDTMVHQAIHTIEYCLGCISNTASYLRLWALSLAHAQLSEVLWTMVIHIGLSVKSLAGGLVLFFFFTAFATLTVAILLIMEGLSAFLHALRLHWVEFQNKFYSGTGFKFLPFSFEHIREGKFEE
UniProt Q92766: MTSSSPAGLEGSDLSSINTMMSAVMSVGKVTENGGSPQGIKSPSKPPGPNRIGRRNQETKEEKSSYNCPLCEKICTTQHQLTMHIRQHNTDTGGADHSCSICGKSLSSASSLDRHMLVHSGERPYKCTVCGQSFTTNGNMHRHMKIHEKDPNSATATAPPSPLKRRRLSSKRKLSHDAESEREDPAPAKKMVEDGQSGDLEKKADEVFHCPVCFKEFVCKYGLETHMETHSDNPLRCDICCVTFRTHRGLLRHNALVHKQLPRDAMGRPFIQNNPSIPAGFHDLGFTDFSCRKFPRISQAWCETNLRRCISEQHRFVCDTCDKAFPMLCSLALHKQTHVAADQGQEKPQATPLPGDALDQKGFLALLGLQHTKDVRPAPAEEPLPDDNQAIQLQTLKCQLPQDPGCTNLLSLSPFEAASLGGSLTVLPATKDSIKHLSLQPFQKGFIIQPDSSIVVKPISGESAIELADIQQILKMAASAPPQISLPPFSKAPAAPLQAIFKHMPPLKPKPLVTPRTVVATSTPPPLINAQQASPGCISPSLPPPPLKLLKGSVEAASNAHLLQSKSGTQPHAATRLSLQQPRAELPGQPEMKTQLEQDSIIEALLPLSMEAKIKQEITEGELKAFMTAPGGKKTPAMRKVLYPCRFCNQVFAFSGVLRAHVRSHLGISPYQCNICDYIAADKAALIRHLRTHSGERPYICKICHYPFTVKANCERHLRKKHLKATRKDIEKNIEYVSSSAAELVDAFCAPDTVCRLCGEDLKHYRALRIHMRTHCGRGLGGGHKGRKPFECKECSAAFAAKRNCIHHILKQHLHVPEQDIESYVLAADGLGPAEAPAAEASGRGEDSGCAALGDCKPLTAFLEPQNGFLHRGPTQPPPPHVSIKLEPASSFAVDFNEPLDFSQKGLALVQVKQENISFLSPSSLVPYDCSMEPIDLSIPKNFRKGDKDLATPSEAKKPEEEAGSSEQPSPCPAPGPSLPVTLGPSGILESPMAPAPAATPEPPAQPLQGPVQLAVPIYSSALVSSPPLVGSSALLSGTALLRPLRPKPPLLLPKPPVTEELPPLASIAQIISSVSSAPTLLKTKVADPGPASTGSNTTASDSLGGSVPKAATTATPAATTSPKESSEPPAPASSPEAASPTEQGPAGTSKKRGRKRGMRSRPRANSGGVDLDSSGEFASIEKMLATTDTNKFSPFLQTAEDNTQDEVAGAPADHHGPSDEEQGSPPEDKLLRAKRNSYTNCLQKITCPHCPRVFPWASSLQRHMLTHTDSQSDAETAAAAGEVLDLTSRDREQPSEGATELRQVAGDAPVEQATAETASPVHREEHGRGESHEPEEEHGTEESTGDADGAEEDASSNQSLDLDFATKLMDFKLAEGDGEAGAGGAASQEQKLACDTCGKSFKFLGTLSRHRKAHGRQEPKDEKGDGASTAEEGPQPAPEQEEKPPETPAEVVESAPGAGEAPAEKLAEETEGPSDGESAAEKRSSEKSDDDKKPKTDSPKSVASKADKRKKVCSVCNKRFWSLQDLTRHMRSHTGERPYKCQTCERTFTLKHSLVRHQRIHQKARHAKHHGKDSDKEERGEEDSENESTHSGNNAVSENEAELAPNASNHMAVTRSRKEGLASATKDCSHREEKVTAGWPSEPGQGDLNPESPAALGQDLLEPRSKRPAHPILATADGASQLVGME
UniProt Q96B97, whole entry: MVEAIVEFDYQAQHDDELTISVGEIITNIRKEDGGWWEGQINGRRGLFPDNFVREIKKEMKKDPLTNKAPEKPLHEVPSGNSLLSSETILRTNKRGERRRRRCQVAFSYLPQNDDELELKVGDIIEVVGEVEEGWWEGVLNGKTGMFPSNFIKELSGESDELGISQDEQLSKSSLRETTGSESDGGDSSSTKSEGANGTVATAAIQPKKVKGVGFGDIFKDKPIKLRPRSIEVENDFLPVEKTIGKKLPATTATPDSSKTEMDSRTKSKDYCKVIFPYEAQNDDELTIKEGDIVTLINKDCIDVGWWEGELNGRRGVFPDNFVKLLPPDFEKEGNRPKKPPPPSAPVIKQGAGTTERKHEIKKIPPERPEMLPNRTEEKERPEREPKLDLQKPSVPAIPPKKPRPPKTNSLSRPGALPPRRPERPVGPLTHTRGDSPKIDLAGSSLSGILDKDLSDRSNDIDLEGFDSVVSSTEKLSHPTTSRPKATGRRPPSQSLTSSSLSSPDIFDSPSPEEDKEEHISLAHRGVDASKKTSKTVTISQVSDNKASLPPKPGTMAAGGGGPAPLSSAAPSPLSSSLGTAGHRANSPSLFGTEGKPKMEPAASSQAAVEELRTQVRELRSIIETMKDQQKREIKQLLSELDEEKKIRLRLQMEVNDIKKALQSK
UniProt Q8WUD1: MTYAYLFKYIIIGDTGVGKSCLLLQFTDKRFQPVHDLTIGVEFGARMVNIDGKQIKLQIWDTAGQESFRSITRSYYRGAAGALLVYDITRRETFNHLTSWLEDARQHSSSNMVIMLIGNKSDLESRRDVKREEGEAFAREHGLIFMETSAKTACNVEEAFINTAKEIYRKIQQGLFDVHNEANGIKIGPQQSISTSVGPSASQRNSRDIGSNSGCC
UniProt Q92769, whole entry: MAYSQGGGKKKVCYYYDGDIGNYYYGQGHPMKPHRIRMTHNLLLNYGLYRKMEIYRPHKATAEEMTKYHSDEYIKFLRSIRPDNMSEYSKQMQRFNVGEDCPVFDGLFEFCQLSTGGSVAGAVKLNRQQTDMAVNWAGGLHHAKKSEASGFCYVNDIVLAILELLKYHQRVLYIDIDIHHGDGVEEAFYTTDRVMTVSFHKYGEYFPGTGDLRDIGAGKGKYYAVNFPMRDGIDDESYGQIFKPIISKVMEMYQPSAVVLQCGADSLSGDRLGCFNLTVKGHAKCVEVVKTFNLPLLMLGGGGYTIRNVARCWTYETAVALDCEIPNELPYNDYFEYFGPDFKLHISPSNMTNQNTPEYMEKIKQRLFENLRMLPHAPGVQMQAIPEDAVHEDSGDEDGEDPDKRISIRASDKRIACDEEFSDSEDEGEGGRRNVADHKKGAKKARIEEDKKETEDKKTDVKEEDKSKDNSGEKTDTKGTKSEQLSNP

Compound: Nc1nc2c(ncn2[C@@H]2O[C@H](COP(=O)(O)OP(=O)(O)OP(=O)(O)O)[C@@H](O)[C@H]2O)c(=O)[nH]1 [guanosine triphosphate]
Test: NP40-soluble protein abundance relative to vehicle (solubility fold change) (ratio); higher = more soluble protein in presence of GTP
Method: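 Solubility proteome profiling in Jurkat crude lysate. Lysate was treated with Mg-GTP (0.1-10 mM) for 10 min at room temperature and 3 min at 37 °C, then solubilised with 0.8% NP40 and benzonase, followed by ultracentrifugation. Proteins were quantified by TMT10 LC-MS/MS; the value is the NP40-soluble abundance relative to the NP40-processed vehicle, from 3 independent experiments.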

Row | Target | NP40-soluble protein abundance (concentration: 0.1mM) | NP40-soluble protein abundance (concentration: 0.5mM) | NP40-soluble protein abundance (concentration: 1mM) | NP40-soluble protein abundance (concentration: 2mM) | NP40-soluble protein abundance (concentration: 4mM) | NP40-soluble protein abundance (concentration: 6mM) | NP40-soluble protein abundance (concentration: 8mM) | NP40-soluble protein abundance (concentration: 10mM)
1 | UniProt Q93050 and related entries | 1.04 ± 0.099 | 1.13 ± 0.071 | 1.02 ± 0.062 | 1.05 ± 0.097 | 1.085 ± 0.0057 | 1.1 ± 0.033 | 1.08 ± 0.048 | 1.03 ± 0.079
2 | UniProt Q92766 and related entries | 1.02 ± 0.033 | 1.05 ± 0.029 | 1.11 ± 0.056 | 1.09 ± 0.069 | 1.12 ± 0.093 | 1.12 ± 0.031 | 1.17 ± 0.12 | 1.17 ± 0.11
3 | UniProt Q96B97 and related entries | 0.941 ± 0.12 | 0.938 ± 0.1 | 0.962 ± 0.1 | 0.943 ± 0.13 | 0.949 ± 0.1 | 0.935 ± 0.098 | 0.982 ± 0.11 | 0.966 ± 0.12
4 | RAB2B (UniProt Q8WUD1) | 1 ± 0.085 | 0.986 ± 0.064 | 0.972 ± 0.1 | 0.925 ± 0.14 | 1 ± 0.094 | 0.896 ± 0.056 | 0.946 ± 0.12 | 0.927 ± 0.1
5 | HDAC2 (UniProt Q92769) | 0.967 ± 0.017 | 1.02 ± 0.012 | 0.999 ± 0.054 | 0.994 ± 0.039 | 1.02 ± 0.025 | 1.05 ± 0.083 | 1.07 ± 0.068 | 1.04 ± 0.043
